Some of these results come from one statement about several compounds together.
These molecules were tested against Constitutively activated human mutant MEK1 (Homo sapiens, UniProt Q02750) (assay: MEK Assay (MEK Activity Assay)). Details: 15 nM MEK1, 50 μM ATP, GST-ERK1 substrate, 30 minutes, HTRF.
Assay type: biochemical

Protein sequences, listed by entry. Tags and fused reporters are not part of them.
UniProt Q02750, whole entry S218D/S222D: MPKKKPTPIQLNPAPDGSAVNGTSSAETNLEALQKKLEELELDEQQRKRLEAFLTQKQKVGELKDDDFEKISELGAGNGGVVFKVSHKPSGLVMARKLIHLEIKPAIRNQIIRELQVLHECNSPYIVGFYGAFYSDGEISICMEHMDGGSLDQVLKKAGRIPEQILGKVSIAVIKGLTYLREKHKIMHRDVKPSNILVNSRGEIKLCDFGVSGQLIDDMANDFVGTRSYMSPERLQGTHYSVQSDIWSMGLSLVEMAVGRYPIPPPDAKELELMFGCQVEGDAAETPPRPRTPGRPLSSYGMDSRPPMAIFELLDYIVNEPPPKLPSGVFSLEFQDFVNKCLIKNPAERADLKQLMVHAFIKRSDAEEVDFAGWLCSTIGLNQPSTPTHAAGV

IC50, < 1 µM:
NC(=O)c1ccn2cncc2c1Nc1ccc(C2CC2)cc1F [Example 5, 8-(4-Cyclopropyl-2-fluoro-phenylamino)-imidazo[1,5-a]pyridine-7-carboxylic acid amide]
C[C@H](O)CONC(=O)c1ccn2cncc2c1Nc1ccc(C2CC2)cc1F [Example 9, 8-(4-Cyclopropyl-2-fluoro-phenylamino)-imidazo[1,5-a]pyridine-7-carboxylic acid ((S)-2-hydroxy-propoxy)-amide]
O=C(NOCCO)c1ccn2cncc2c1Nc1ccc(Br)cc1F [Example 11, 8-(4-Bromo-2-fluoro-phenylamino)-imidazo[1,5-a]pyridine-7-carboxylic acid (2-hydroxy-ethoxy)-amide]
CC(C)(CO)ONC(=O)c1ccn2cncc2c1Nc1ccc(C2CC2)cc1F [Example 10, 8-(4-Cyclopropyl-2-fluoro-phenylamino)-imidazo[1,5-a]pyridine-7-carboxylic acid (2-hydroxy-1,1-dimethyl-ethoxy)-amide]
CSc1ccc(Nc2c(C(=O)NOCCO)ccn3cncc23)c(F)c1 [Example 7, 8-(2-Fluoro-4-methylsulfanyl-phenylamino)-imidazo[1,5-a]pyridine-7-carboxylic acid (2-hydroxy-ethoxy)-amide]
C[C@H](O)CONC(=O)c1ccn2cncc2c1Nc1ccc(Br)cc1F [Example 12, 8-(4-Bromo-2-fluoro-phenylamino)-imidazo[1,5-a]pyridine-7-carboxylic acid ((S)-2-hydroxy-propoxy)-amide]
O=C(NOCCO)c1ccn2cncc2c1Nc1ccc(C2CCC2)cc1F [Example 14, 8-(4-Cyclobutyl-2-fluoro-phenylamino)-imidazo[1,5-a]pyridine-7-carboxylic acid (2-hydroxy-ethoxy)-amide]
O=C(NOCCO)c1ccn2cncc2c1Nc1ccc(I)cc1F [Example 8, 8-(2-Fluoro-4-iodo-phenylamino)-imidazo[1,5-a]pyridine-7-carboxylic acid (2-hydroxy-ethoxy)-amide]
O=C(NOCCO)c1ccn2cncc2c1Nc1ccc(Br)cc1Cl [Example 13, 8-(4-Bromo-2-chloro-phenylamino)-imidazo[1,5-a]pyridine-7-carboxylic acid (2-hydroxy-ethoxy)-amide]
O=C(NOCCO)c1ccn2cncc2c1Nc1ccc(C2CC2)cc1F [Example 6, 8-(4-Cyclopropyl-2-fluoro-phenylamino)-imidazo[1,5-a]pyridine-7-carboxylic acid (2-hydroxy-ethoxy)-amide]

Reference: patent US8293763B2, “8-anilinoimidazopyridines and their use as anti-cancer and/or anti-inflammatory agents” (Genentech, Inc., priority 2007, dated 2012)
